Experimental data: PubChem BioAssay AID743121 (NCATS, 2013)
Here is a random part of about 26,000 reagents tested. 167 of all reagents (0.63%) were called active. 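Calls are per gene from RSA p-values that are not deposited; an individual active-marked siRNA can sensitise only weakly.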 Reagents against one gene are numbered here. Not all columns of the deposit are shown. No sequences are given here.

Assay: 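Genes whose silencing strengthens cell killing by camptothecin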 (primary screen)
Cell system: MDA-MB-231 cells, a human breast cancer line
Knock-down reagent: single siRNA against human genes, 20 nM siRNA (0.8 pmol per well)
Time to read-out: 120 h (drug added 48 h after transfection, read 72 h later)
Challenge: camptothecin 20 nM (about EC30) for 72 h; vehicle 0.1% DMSO in parallel plates
Measured: 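CellTiter-Glo ATP signal, scaled to control siRNA as percent viability; sensitisation given as log2 of untreated divided by camptothecin-treated viability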
Scale: log2 vehicle/camptothecin viability: higher = stronger sensitisation to camptothecin; viability with camptothecin: higher = more viable cells
Call rule: 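Each gene scored by redundant siRNA activity (RSA) over its individual siRNA ratios; a gene is called active at p < 0.001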

gene knocked down,reagent,log2 vehicle/camptothecin viability,viability with camptothecin (% of control),Call
VIPR2,1,-0.0532,47.9,inactive
VIPR2,2,-0.0786,57.1,inactive
VIPR2,3,-0.0973,87.1,inactive
VIPR2,4,-0.0761,63.8,inactive
FOXO3,1,0.0132,85.7,inactive
FOXO3,2,-0.262,70.9,inactive
FOXO3,3,0.26,70.6,inactive
FOXO3,4,0.496,36.3,inactive
ALOX5,1,-0.295,71.4,inactive
ALOX5,2,-0.0882,56.8,inactive
ALOX5,3,-0.0571,72.3,inactive
KNG1,1,-0.594,77.3,inactive
KNG1,2,0.11,56.6,inactive
KNG1,3,-0.262,96.3,inactive
KNG1,4,-0.578,75.2,inactive
OR2L13,1,0.12,83.5,inactive
OR2L13,2,-0.315,117,inactive
OR2L13,3,-0.342,99.9,inactive
OR2L13,4,0.0622,82.2,inactive

Records listed so far whose target name starts with K or k:
gene knocked down,reagent,log2 vehicle/camptothecin viability,viability with camptothecin (% of control),Call
KNG1,1,-0.594,77.3,inactive
KNG1,2,0.11,56.6,inactive
KNG1,3,-0.262,96.3,inactive
KNG1,4,-0.578,75.2,inactive

Continued:
gene knocked down,reagent,log2 vehicle/camptothecin viability,viability with camptothecin (% of control),Call
ATP2C1,1,-0.169,86.9,inactive
ATP2C1,2,0.0325,40.9,inactive
ATP2C1,3,-0.414,112,inactive
RALB,1,-0.247,87.7,inactive
RALB,2,0.0206,61.1,inactive
RALB,3,-0.242,105,inactive
RALB,4,0.0557,80.5,inactive
KCNK2,1,0.629,30.6,active
KCNK2,2,0.249,75,active
KCNK2,3,0.467,62.5,active
KCNK2,4,0.341,74.7,active
